Literature values in patent publication US9700872B1, “Superpolar chromatographic stationary phases and extraction sorbents and their methods of synthesis” (THE FLORIDA INTERNATIONAL UNIVERSITY BOARD OF TRUSTEES, priority 2016, dated 2017).
For at least one compound, name, drawing or mass did not settle the structure.

| SMILES | Log Kow |
| --- | --- |
| CC(Cl)(Cl)Cl [1,1,1-Trichloroethane] | 2.4 |
| ClCC(Cl)Cl [1,1,2-Trichloroethane] | 2.4 |
| C=C(Cl)Cl [1,1-Dichloroethylene] | 2.3 |
| CC(Cl)CCl (centres unmarked) [1,2-Dichloropropane] | 1.8 |
| Cl/C=C/CCl [1,3-Dichloropropylene] | 1.7 |
| O=S1OC[C@@H]2[C@H](CO1)[C@@]1(Cl)C(Cl)=C(Cl)[C@]2(Cl)C1(Cl)Cl (stereo partly drawn) [Alpha-endosulfan] | 3.8 |
| O=S1OC[C@@H]2[C@H](CO1)[C@]1(Cl)C(Cl)=C(Cl)[C@]2(Cl)C1(Cl)Cl (stereo partly drawn) [Beta-endosulfan] | 3.8 |
| CC(CCl)OC(C)CCl (centres unmarked) [Bis(2-Chloroisopropyl)ether] | 2.7 |
| ClC(Cl)Br [Dichlorobromomethane] | 2.4 |
| CN(C)N=O [N-Nitrosodimethylamine] | −0.6 |
| C=CCl [Vinyl chloride] | 1.5 |
